Test results: the supplement of paper PMC12823440, “Inhibitors supercharge kinase turnover through native proteolytic circuits” (Nature, 2025)
Counter-ions that a name gives are not always drawn. The list shows a part of the results. The calls rarely recur for the same compound in another form.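 Kinases were expressed as nanoluciferase fusions in K562 cells and luminescence was read every 4 h between 2 and 18 h as percent of control, DMSO set to 100% and a positive control to 0%. A time point counts as decreased when the signal drops significantly (2 sigma). The hit call is the authors' own, does not follow from the count of time points alone, and its rule is not shown.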

By UniProt entry, the sequences of proteins in these tests, tags left out. Where a name states a change or a piece, a line headed by the entry shows the natural chain unless it says otherwise.
UniProt Q9BUB5: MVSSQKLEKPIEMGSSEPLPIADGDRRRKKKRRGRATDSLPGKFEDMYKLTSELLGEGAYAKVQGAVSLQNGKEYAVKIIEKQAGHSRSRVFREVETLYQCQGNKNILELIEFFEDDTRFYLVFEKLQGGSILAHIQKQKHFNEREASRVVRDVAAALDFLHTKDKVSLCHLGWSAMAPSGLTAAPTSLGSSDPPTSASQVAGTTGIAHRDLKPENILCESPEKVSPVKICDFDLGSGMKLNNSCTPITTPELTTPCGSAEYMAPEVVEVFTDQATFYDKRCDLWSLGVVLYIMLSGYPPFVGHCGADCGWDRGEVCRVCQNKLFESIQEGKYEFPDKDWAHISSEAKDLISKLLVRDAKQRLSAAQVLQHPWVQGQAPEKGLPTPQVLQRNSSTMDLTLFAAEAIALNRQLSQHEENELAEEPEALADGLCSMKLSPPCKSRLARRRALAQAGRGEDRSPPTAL

Target: MKNK1 (UniProt Q9BUB5)
Assay: kinase-Nluc reporter destabilization hit call (1 = scored as downregulated) (binary); higher = compound decreases kinase abundance
Details: K562; 2-18 h

kinase-Nluc reporter destabilization hit call, inactive:
CC(C1CC1)n1cnc2c(NCc3cccc(C(F)(F)F)c3)nc(NCCN(C)C)nc21 (configuration not stated) (10 µM) 0, COc1cc2nc(NC3CC3)nc(NC3CCN(C(C)C)CC3)c2cc1OC (10 µM) 0, Cc1nn(CC(F)(F)F)cc1Nc1ncc(Br)c(NCc2ccc(S(N)(=O)=O)cc2)n1 (10 µM) 0, N#C/C(=C/c1ccc(O)c(O)c1)C(=O)N1CCc2ccccc21 [Tyrphostin AG 528] (10 µM) 0, Cc1nc2c(NCc3cccc(S(C)(=O)=O)c3)nccn2c1-c1ccc(O)c(F)c1 (10 µM) 0, CN(C)c1cc[n+](Cc2ccc(OCCOc3ccc(C[n+]4ccc(N(C)C)cc4)cc3)cc2)cc1 (10 µM) 0, O=C1CCC(N2C(=O)c3cccc(OCCCCCOc4ccc(CC(=O)Nc5cc(C6CCC6)[nH]n5)cc4)c3C2=O)C(=O)N1 (configuration not stated) [PROTAC CDK9 Degrader-1] (10 µM) 0, CCOc1cc(=O)[nH]cc1-c1ccc(CC(=O)Nc2cc(C(C)(C)C(F)(F)F)on2)c(F)c1 (10 µM) 0, O=C(O)/C=C(\CCc1ccc(Cl)cc1)c1ccccc1 (10 µM) 0, CCc1c(C(=O)NNC(=O)[C@H](O)c2cc(F)cc(F)c2)ccc(O)c1C (10 µM) 0, O=c1cc(N2CCOCC2)oc2c(-c3cccc4c3sc3ccccc34)cccc12 (10 µM) 0, CN1CCN(c2ccc(-n3cc(-c4ccncc4OCC4CCNCC4)cn3)cc2)CC1 [MELK-8a (hydrochloride)] (10 µM) 0
